Assay results reported in patent publication US11696960B2, “Methods and compounds for detection and binding of aldehydes” (UNIVERSITY OF OTTAWA, priority 2017, dated 2023).
Some results were stated once for a whole list of compounds, not compound by compound. At least one compound was matched to its structure with a doubt left.

Test: Hydrazone formation kinetics and reaction completion in 1×PBS at 37° C.
Description: The hydrazone peak is shown (r.t.=17.5 min for MeONA^3 and 17.2 min for MeOPH) at the time points indicated, showing a loss of the MeOPH-derived hydrazone but stability of the MeONA^3-derived product over time. All reactions were performed in 1×PBS at 37° C., and points represent mean±s.d. for n=3 trials
FIG. 13, discussed above, illustrates that the o-carboxylic acid contributes to substantial reaction completion as well as extended stability of the product hydrazone under physiological conditions. […] The hydrazone peak is shown (r.t.=17.5 min for 2f and 17.2 min for MeOPH) at the time points indicated. All reactions were performed in 1×PBS at 37° C., and points represent mean±s.d. for n=3 trials.
Repeating the methodology, however at 37° C. in 100% 1×PBS, determined the kobs for the reaction of 5-methoxy N-amino anthranilic acid (2f) and related analogs with 2-formylbenzenesulfonic acid (FIG. 13) and acetone.
Hydrazone stability was assayed both spectrophotometrically (FIG. 13, Panel A), as well as by HPLC (FIG. 13, Panel B). […] Since the signal produced by Hydrazo-CEST depends on the hydrazone form of the probe, the faster-forming and longer-lived the hydrazone product under physiological conditions, the better the imaging signal evolved and the more potentially sensitive the imaging technique.

| SMILES | reaction completion, maximum [%] |
| --- | --- |
| COC(=O)c1cc(OC)ccc1NN [Compound 7, 5-methoxy-N-amino anthranilate methyl ester] | < 25 |
| COc1ccc(NN)cc1.Cl.Cl [Compound 9, 4-methoxyphenyl hydrazine dihydrochloride] | < 25 |
